Test results from PubChem BioAssay AID2685 (National Center for Advancing Translational Sciences (NCATS), 2010).
In all, about 320,000 compounds went through this assay and about 2,100 (0.66%) were called active. This list was built around the results that the source calls inconclusive (neither active nor inactive); the mix of calls is not that of the screen. Calls follow the shape of the dose curve; as a rule, active = well fitted inhibition curve with a large enough effect in the signal ratio, with a control signal flat (not every such curve was filed as active); inconclusive = small, poorly fitted or top-dose-only effect, or effect the other way, or a change in a side signal; inactive = flat fitted curve, though single readings scatter; the % refers to the signal ratio. Potencies beside an inconclusive call are fits to weak or partial responses and may not hold up.

Assay: qHTS Assay for Lipid Storage Modulators in Drosophila S3 Cells
Settings: BODIPY lipid droplet fluorescence, 18-24 h, cells fed with added oleic acid; lipid storage change, negative = inhibition: at 46.1 µM (top of the series) unless noted
Procedure, shortened: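 Drosophila S3 cells got compounds at several concentrations plus oleic acid (400 uM solution). Laser-scanning cytometry with 488 nm excitation read lipid droplets at 500-530 nm and cells at 575-640 nm. Percent activity was relative to 20 uM Triacsin C.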
% is scaled to controls: 0 for no effect and ±100 for the full control effect; potency is read from the fitted curve at half-maximal effect.

Row | SMILES | Potency | lipid storage change, negative = inhibition | outcome
1 | O=C1c2ccccc2C(=O)c2cc(S(=O)(=O)Nc3ccccc3)ccc21 | inconclusive: 32.6 µM [activator, single point] | – | –
2 | C[C@@H](C(=O)Nc1ccc2ccccc2c1)[C@H]1C[C@]1(C)[C@H](NS(=O)(=O)c1ccc(-c2ccccc2)cc1)c1ccccc1 | inconclusive: 5.8 µM [activator, partial curve] | – | –
3 | CN1C(=O)/C(=C2\SC(=S)N(NC(=O)c3cccnc3)C2=O)c2ccccc21 | inconclusive: 20.6 µM [falling, single point] | – | –
4 | O=C1CCCCN1CC(=O)N1CCCC(N2CCN(c3ccccc3F)CC2)C1 (stereo not drawn) | – | inconclusive: 203% | –
5 | COc1ccc(Br)cc1C(=O)Nc1cccc(NC(=O)c2ccco2)c1 | inconclusive: 18.4 µM [activator, single point] | – | –
6 | CC(C)(C)n1nnc(CCc2nnn(C(C)(C)C)n2)n1 | inconclusive: 16.4 µM [falling, single point] | – | –
7 | CNC(=O)NC(=O)C(C)OC(=O)c1oc2ccccc2c1CSc1ccc(Cl)cc1 (stereo not drawn) | inconclusive: 23.1 µM [falling, single point] | – | –
8 | COc1ccc2c(=O)c(Oc3ccc(C(=O)O)cc3)c(C(F)(F)F)oc2c1 | – | inconclusive: 20.8% | –
9 | O=C(NCCN1C(=O)S/C(=C\c2ccccc2)C1=O)c1cc(S(=O)(=O)N2CCOCC2)c(Cl)cc1Cl | inconclusive: 20.6 µM [falling, single point] | – | –
10 | C/C(=N\NC(N)=S)c1ccc(Cl)s1 | – | inconclusive: 13.8% | –
11 | CC1=C(C(=O)OCc2ccccc2)N2C(=O)[C@@H](NC(=O)COc3ccccc3)[C@H]2SC1 | – | inconclusive: 5.94% | –
12 | COc1ccc(C(=O)C(C)OC(=O)c2sc(C)nc2C)cc1 (stereo not drawn) | – | inconclusive: 10.6% | –
13 | CN(CC(=O)Nc1ccc(F)cc1)C(=O)COC(=O)C1CCN(c2ccc(C(F)(F)F)cn2)CC1 | – | inconclusive | –
14 | Cc1ccc(-n2ncc3c(=O)n(-c4ccc(C)c(C)c4)c(C)nc32)cc1 | – | inactive: 20.1% | –
15 | O=C(CN(Cc1ccc(Cl)cc1)S(=O)(=O)c1ccccc1)NCC1CCCO1 (stereo not drawn) | inconclusive: 5.8 µM [activator, full curve] | – | –
16 | Cc1ccccc1-c1nc(CS(=O)(=O)CC(=O)NCCc2ccccc2)c(C)o1 | inconclusive: 6.51 µM [falling, single point] | – | –
17 | O=C(Nc1nccs1)c1ccc(-c2ccc(F)c(Cl)c2)o1 | active: 10.3 µM | – | –
18 | CN(C)C(CNC(=O)CCc1c[nH]c2ccccc12)c1ccccc1 (stereo not drawn) | – | inconclusive: 23.5% | –
19 | O=C(CSc1nc2ccccc2c(=O)n1-c1ccccc1Cl)Nc1cccc(S(=O)(=O)N2CCOCC2)c1 | inconclusive: 0.731 µM [falling, full curve, poor fit] | – | –
20 | COc1ccc(C(=O)Nc2ccc(N3CCN(C(=O)c4ccccc4)CC3)cc2)cc1[N+](=O)[O-] | – | inconclusive: 1.25% | –
21 | O=C(CN1CCN(S(=O)(=O)c2ccccc2)CC1)Nc1ccc(N2CCOCC2)cc1 | – | inconclusive: 6.53% | –
22 | CCN(CC)S(=O)(=O)c1ccc(Cl)c(NC(=O)COc2ccc(OC)cc2[N+](=O)[O-])c1 | – | inconclusive: 36.9% | –
23 | CN1CCN(S(=O)(=O)c2csc(C(N)=O)c2)CC1 | – | inactive: 2.59% | –
24 | CN(C)C(=O)c1ccc(-n2cccn2)nc1 | – | inconclusive: 16.9% | –
25 | COc1cnn(-c2cccc(C)c2)c(=O)c1Cl | – | inconclusive: -9.01% | –

Complete entries, looked up by structure.
O=C(NCCN1C(=O)S/C(=C\c2ccccc2)C1=O)c1cc(S(=O)(=O)N2CCOCC2)c(Cl)cc1Cl as listed: Potency: inconclusive: 20.6 µM [falling, single point]
CN(CC(=O)Nc1ccc(F)cc1)C(=O)COC(=O)C1CCN(c2ccc(C(F)(F)F)cn2)CC1 as listed: lipid storage change, negative = inhibition: inconclusive
CN(C)C(=O)c1ccc(-n2cccn2)nc1 as listed: lipid storage change, negative = inhibition: inconclusive: 16.9%
O=C(CN(Cc1ccc(Cl)cc1)S(=O)(=O)c1ccccc1)NCC1CCCO1 (stereo not drawn) as listed: Potency: inconclusive: 5.8 µM [activator, full curve]

Later entries.

Row | SMILES | Potency | lipid storage change, negative = inhibition | outcome
26 | c1ccc(CSc2nnnn2-c2cccc3ccccc23)nc1 | – | inconclusive: 4.92% | –
27 | COc1ccccc1C(=O)Nc1cccc(-c2cn3ccsc3n2)c1 | inconclusive: 0.082 µM [activator, partial curve, poor fit] | – | –
28 | CCOc1cc(CNC(C)C)c(Cl)cc1OCC(=O)NCCc1ccccc1 | inconclusive: 6.51 µM [activator, single point] | – | –
29 | COc1ccc(-n2c(C)cc(C(=O)COC(=O)Cc3n[nH]c(=O)c4ccccc34)c2C)cc1 | inconclusive: 16.4 µM [cytotoxic, partial curve, poor fit] | – | –
30 | O=C1CC(=O)N(CCc2ccccc2)C(=O)N1CCc1ccccc1 | – | inactive: 2.21% | –
31 | Cn1c(=O)c2c(ncn2CC(=O)NCc2cccnc2)n(C)c1=O | – | inconclusive: -39.6% [at 0.0737 µM] | –
32 | COc1cc(NC(=O)c2cccs2)c(C(=O)OCC(=O)c2cc(C)n(-c3ccccc3)c2C)cc1OC | – | inconclusive: 14.9% | –
33 | O=C(COc1ccccc1)N=C1SC2CS(=O)(=O)CC2N1c1ccccc1F (stereo not drawn) | inconclusive: 29.1 µM [falling, single point] | – | –
34 | CC1CCN(CCOCCOc2ccccc2Br)CC1 | – | inconclusive: -4.44% | –
35 | Cc1c(C(=O)OC(C)C)nnn1-c1nonc1N | – | inactive: -3.46% | –
36 | CC(=O)Nc1cccc(C(=O)OC(C)C(=O)Nc2ccc(S(=O)(=O)N3CCCC3)cc2)c1 (stereo not drawn) | – | inconclusive: -21.8% | –
37 | CCn1c(SCC(=O)NC2CCCC2)nnc1-c1ccco1 | – | inconclusive: 41.6% | –
38 | O=C(NC(NC(=O)c1c(F)cccc1F)c1ccc([N+](=O)[O-])cc1)c1c(F)cccc1F | inconclusive: 29.1 µM [falling, single point] | – | –
39 | Cc1ccccc1Nc1nc(-c2sc(NC(=O)c3ccccc3)nc2C)cs1 | – | inconclusive: 282% | –
40 | COc1cccc(OCc2cc(/C=N/n3cncn3)ccc2OC)c1 | inconclusive: 3.66 µM [activator, single point] | – | –
41 | C=CCn1c(=O)/c(=C/c2cc(OC)c(OC)c(OC)c2)s/c1=C(/C#N)c1nc2ccccc2n1C | – | inconclusive: 21.4% | –
42 | COc1cccc(-c2nnc(SCC(=O)Nc3cc(C)on3)n2C)c1 | inconclusive: 6.51 µM [rising, single point] | – | –
43 | COc1ccc(CCN(C)C(=O)Cn2c(=O)oc3ccccc32)cc1OC | inconclusive: 2.91 µM [activator, single point] | – | –
44 | c1ccc2c(c1)nc(N1CCOCC1)c1c3ccccc3[nH]c21 | inconclusive: 0.461 µM [activator, partial curve] | – | –
45 | C=CCN1C(c2ccccc2)=CS/C1=C(\C#N)c1nnc2n1CCCCC2 | – | inconclusive: -0.523% | –
46 | CC[C@H](C)[C@H](NC(N)=O)C(=O)Nc1ccccc1F | – | inconclusive: -7.51% | –
47 | CCOc1ccc(CN(C)CC(=O)c2c(N)n(Cc3ccccc3)c(=O)n(CC)c2=O)cc1OC | – | inconclusive: 58.4% | –
48 | COc1cc(NC(=O)COc2cccc(C)c2C)ccc1NC(=O)c1ccco1 | inconclusive: 29.1 µM [falling, single point] | – | –
49 | COCCn1c(SCC(=O)N2CCCCC2)nc2c([nH]c3ccccc32)c1=O | – | inconclusive: -59% | –
50 | CCOc1ccc(N(CC(=O)NC(C)C)C(=O)CCC(=O)Nc2ccccn2)cc1 | inconclusive: 2.59 µM [falling, full curve] | – | –

Row | SMILES | Potency | lipid storage change, negative = inhibition | outcome
51 | COc1ccc(/C=C/C(=O)O)cc1S(=O)(=O)N1CCC(C)CC1 | – | inconclusive: 21.2% | –
52 | COc1cccc(NC(=S)N2CCN(c3ccccn3)CC2)c1 | – | inconclusive: -0.508% | –
53 | CC1CCN(S(=O)(=O)c2ccc3c(c2)CC(C)N3C(=O)C2CCC2)CC1 (stereo not drawn) | inconclusive: 6.51 µM [activator, single point] | – | –
54 | Cc1nnc(NC(=O)c2c(-c3ccccc3Cl)noc2C)s1 | – | inconclusive: 32.5% | –
55 | CCOC(=O)c1cc(NC(=O)/C=C\C(=O)O)ccc1Cl | inconclusive: 0.103 µM [cytotoxic, full curve, poor fit] | – | –
56 | CC(c1ccccc1)C1C(C#N)=C(N)OC2=C1C(=O)CC(C)(C)C2 (stereo not drawn) | – | inactive: 6.38% | –
57 | Cc1ccc(C2=NS(=O)(=O)N(C)C(C(=O)NC3CCCCC3)=C2)cc1 | – | inconclusive: -5.37% | –
58 | O=C(O)CCCC(=O)Nc1ccccc1C(=O)O | inconclusive: 0.82 µM [falling, full curve, poor fit] | – | –
59 | COc1ccc(Cl)cc1NS(=O)(=O)c1cccc(C(=O)NCC(c2ccco2)N(C)C)c1 (stereo not drawn) | – | – | inactive [at 0.369 µM]
60 | O=C(COc1ccc(Br)cc1)Nc1cc(S(=O)(=O)N2CCCCC2)ccc1N1CCCCC1 | inconclusive: 0.731 µM [activator, partial curve] | – | –
61 | O=C(CNS(=O)(=O)c1ccccc1)N/N=C/c1ccncc1 | – | inconclusive: 6.3% | –
62 | CN(C)c1nc(N(C)C)nc(N2CC(=O)N(c3ccccc3)C2=N)n1 | – | inconclusive: -46% | –
63 | CCc1cc2c(NCc3ccccc3)nc(C)nc2s1 | – | inconclusive: 20.7% | –
64 | COC(=O)c1ccc(/C=N/NS(=O)(=O)c2cc(C)ccc2C)cc1 | – | inconclusive: -4.19% | –
65 | COc1ccccc1/C=C/C=N/N1CCN(Cc2ccc(Cl)cc2)CC1 | – | inconclusive: 5.07% | –
66 | CCC(=O)Nc1ccc(S(=O)(=O)Nc2c(NC)c3ccccc3oc2=O)cc1 | active: 18.4 µM | – | –
67 | Cc1ccc(N=CNc2ccc(C)cc2C)c(C)c1 | – | inconclusive: 20.8% | –
68 | COc1ccc(Cn2c(CCC(=O)Nc3ccc(C)cc3)nc3cccnc32)cc1 | inconclusive: 0.164 µM [rising, full curve] | – | –
69 | COc1ccc2c3c(cccc13)OC2=O | – | inconclusive: 39.7% | –
70 | O=C(O)C(c1ccccc1)N1C(=O)/C(=C\c2ccc(-c3cccc(Cl)c3)o2)SC1=S (stereo not drawn) | – | inconclusive: -26.5% | –
71 | CCN1C(=O)[C@H]2[C@@H](c3ccc(C)cc3)N3C(=O)N(c4ccc(OC)cc4)C(=O)[C@@]3(CC)[C@H]2C1=O | inconclusive: 6.51 µM [falling, partial curve, poor fit] | – | –
72 | Cc1cc(OCCNCCO)cc(C)c1Cl | – | inconclusive: 23.8% | –
73 | O=C(O)c1ccc(CSc2nc3ccc(N4C(=O)C5C6C=CC(C6)C5C4=O)cc3s2)cc1 (stereo not drawn) | – | inconclusive: 5.22% | –
